Measured values: patent US12171229B2, “Heteroaryl-triazole and heteroaryl-tetrazole compounds as pesticides” (BAYER AKTIENGESELLSCHAFT, priority 2018, dated 2024)
For some assays here: The name of at least one read-out is uncertain. Some of these results come from one statement about several compounds together.

How the values were obtained:
Diabrotica balteata = Diabrotica balteata spray test; format: in vivo; conditions: 160 μg/well (=500 g/ha); after 7 days; larvae on wheat seeds
Protocol: Diabrotica balteata—Spray Test [table] To produce a suitable preparation of active compound, 1 part by weight of active compound is mixed with the stated amount of solvent, and the concentrate is diluted with water, containing an emulsifier concentration of 1000 ppm, to the desired concentration. Further test concentrations are prepared by dilution with emulsifier containing water. Soaked wheat seeds (Triticum aestivum) are placed in a multiple well plate filled with agar and some water and are incubated for 1 day to germinate (5 seeds per well). The germinated wheat seeds are sprayed with a test solution containing the desired concentration of the active ingredient. Afterwards each unit is infected with 10-20 larvae of the banded cucumber beetle (Diabrotica balteata). After 7 days efficacy in % is determined. 100% means all the seedlings have grown up like in the untreated, uninfected control; 0% means none of the seedlings have grown.

Ctenocephalides felis = Ctenocephalides felis oral test; format: in vivo; conditions: 100 ppm in cattle blood; after 2 days; adult unfed cat fleas
Protocol: Ctenocephalides Felis—Oral Test
Solvent: dimethyl sulfoxide
To produce a suitable preparation of active compound, 10 mg of active compound are dissolved in 0.5 ml solvent, and the concentrate is diluted with cattle blood to the desired concentration.
Approximately 20 adult unfed cat fleas (Ctenocephalides felis) are placed in flea chambers. The blood chamber, sealed with parafilm on the bottom, are filled with cattle blood supplied with compound solution and placed on the gauze covered top of the flea chamber, so that the fleas are able to suck the blood. The blood chamber is heated to 37° C. whereas the flea chamber is kept at room temperature.
After 2 days mortality in % is determined. 100% means all the fleas have been killed; 0% means none of the fleas have been killed.

| SMILES | efficacy (seedlings grown up) (Diabrotica balteata) | mortality (Ctenocephalides felis) |
| --- | --- | --- |
| C[C@H](NC(=O)c1cc(C(F)(F)F)cc(C(F)(F)F)c1)c1ncnn1-c1nccs1 [Example I-103] | 80% |  |
| C[C@H](NC(=O)c1cc(Cl)cc(C(F)(F)F)c1)c1ncnn1C1CCS(=O)(=O)C1 (single isomer, unassigned) [Example I-025] |  | 100% |
